For at least one entry, the source does not settle the construct or the ends of the probe. Results from cells or extracts need not show a direct contact. For part of these data: Negatives hold for the conditions tested. Protein sequences can lack the tags named with them.
What was measured:
NFATc1 (Homo sapiens) [1] = molecular target: T1, NFATc1 (Homo sapiens) (UniProt O95644); test: promoter enzyme immunoassay (ELISA); conditions: poly(dI-dC), anti-NFATc1 detection; ELISA: 5 pmol probe/well, 20 ug nuclear extract, 4 C 2 h, washes in HKMG (10 mM HEPES pH 7.9, 100 mM KCl, 5 mM MgCl2, 10% glycerol, 1 mM DTT, 0.5% NP-40); protein in an extract; label: 5'-biotin on sense strand
T1 sequence (looked up, limits assumed): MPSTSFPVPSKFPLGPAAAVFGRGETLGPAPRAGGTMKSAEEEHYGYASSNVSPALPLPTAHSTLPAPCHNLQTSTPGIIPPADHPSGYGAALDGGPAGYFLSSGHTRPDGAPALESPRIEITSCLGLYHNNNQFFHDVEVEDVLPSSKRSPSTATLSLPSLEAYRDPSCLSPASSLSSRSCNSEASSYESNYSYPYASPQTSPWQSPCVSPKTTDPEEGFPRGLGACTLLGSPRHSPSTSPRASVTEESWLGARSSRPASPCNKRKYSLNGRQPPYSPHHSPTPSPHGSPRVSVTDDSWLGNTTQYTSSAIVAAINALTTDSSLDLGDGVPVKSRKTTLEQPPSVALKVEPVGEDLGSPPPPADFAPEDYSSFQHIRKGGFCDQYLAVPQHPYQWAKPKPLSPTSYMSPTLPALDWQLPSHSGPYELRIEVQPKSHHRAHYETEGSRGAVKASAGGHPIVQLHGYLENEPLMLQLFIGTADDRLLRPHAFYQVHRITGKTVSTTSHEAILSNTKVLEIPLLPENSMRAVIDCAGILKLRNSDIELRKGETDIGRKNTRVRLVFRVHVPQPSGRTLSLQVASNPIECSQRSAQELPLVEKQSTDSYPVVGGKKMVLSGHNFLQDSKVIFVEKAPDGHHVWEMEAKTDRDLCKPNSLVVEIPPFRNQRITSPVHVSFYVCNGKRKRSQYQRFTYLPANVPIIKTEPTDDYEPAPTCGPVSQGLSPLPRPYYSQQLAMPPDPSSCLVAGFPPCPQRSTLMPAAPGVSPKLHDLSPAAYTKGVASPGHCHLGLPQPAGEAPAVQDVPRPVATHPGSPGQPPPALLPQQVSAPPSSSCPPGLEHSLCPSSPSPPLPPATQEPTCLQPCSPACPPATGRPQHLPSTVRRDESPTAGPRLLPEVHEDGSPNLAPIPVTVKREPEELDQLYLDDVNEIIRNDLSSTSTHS

NFATc1 (Homo sapiens) [2] = molecular target: T1, NFATc1 (Homo sapiens); test: EMSA (supershift); conditions: poly(dI-dC); EMSA: 10 mM Tris pH 7.4, 50 mM KCl, 1 mM DTT, 0.05 mg/ml poly(dI-dC), 5 mM MgCl2, 2.5% glycerol, 0.05% NP40, 20 min RT, 20 fmol probe, 6 ug nuclear protein; protein in an extract; label: 5'-biotin on sense strand

| Sequence | binding result (NFATc1 (Homo sapiens) [1]) | binding result (NFATc1 (Homo sapiens) [2]) |
| --- | --- | --- |
| GTGGTTGGCTAGCCATTGAC (double strand) [NFAT-mut probe] | no binding | – |
| GTGGTTGTGGAAACATTGAC (double strand) [NFAT wt probe (STAB2 promoter -188 to -183)] | binds | binds |

Source: article PMC4793076
